The results in this text go back to PMC5996148.

Holding throughout (assay): protein microarray (ProtoArray v5.0), streptavidin-Alexa Fluor 647
Details in all cases: 3'-biotin; 20 mM Tris (pH 7.5), 5 mM MgCl2, 100 mM KCl, 0.1% Tween-20, A/T-rich and random oligonucleotide blockers; temperature not stated; high values mean tight binding

Test [1] deals with Thymosin beta-4, Y-chromosomal (human).
In test [2] the test system is Thyroid receptor-interacting protein 11 (human).
The next test has as its system Transaldolase (human).
Test [3] relates to Transcription initiation factor TFIID subunit 8 (human).
Test [4] deals with Transmembrane 4 L6 family member 1 (human).
Test [5] has as its system Transmembrane protein 107 (human).
For test [6], the system named is Transmembrane protein 156 (human).
Test [7] relates to Transmembrane protein 203 (human).
Test [8] deals with Transmembrane protein 207 (human).
Test [9] deals with Transmembrane protein 43 (human).

The list shows a part of the results.

As to “GGGGACAGGGGTATGGGGAGGGG [G4-3 biotinylated (CtG)]”, the binding signal was -0.337 z-score in [1]; -0.325 z-score in [2]; -0.335 z-score in the test on Transaldolase (human); -0.333 z-score in [3]; -0.295 z-score in [4]; -0.314 z-score in test [5]. The binding signal in test [6] is -0.336 z-score; in test [7], -0.328 z-score; in test [8] it was -0.31 z-score; in test [9], -0.324 z-score.
